# Laboratory results: PubChem BioAssay AID1347426 (Functional Genomics Laboratory (NCATS/FGL), 2020)
# Hit rate of the full screen: of about 31,000 sequences, about 1,400 (4.5%) were called active.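 How the source made its calls: active means median seed-adjusted z-score above 1 or below -1; inactive means the rest.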 The list shows a part of the results.
# Assay: Novel Modifiers of Survival Motor Neuron (SMN) Protein: Gene Identification via Genome-wide siRNA Screen;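 further: luminescence tracks full-length SMN protein made from the SMN2 reporter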
# Settings: HEK293T SMN2-luciferase reporter, siRNA knockdown, 72 h; actives lie on both sides
# Summary of the method: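 Steps: spot 1 pmol siRNA, add Lipofectamine RNAiMax in serum-free DMEM, seed HEK293T SMN2–luciferase reporter cells; incubate 72 h at 37 °C; add ONE-Glo; normalize luminescence to control siRNA, log10, MAD. Candidates: |MAD| > 1.0.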
row,Sequence,median seed-adjusted z-score
1,GAAAUUGUCCAUAUAGAUATT against PITPNB,inactive: 0.57
2,GCAACUGCGUAACUGAUGATT against BAG5,inactive: -0.0153
3,CAUUCGAAACGAAGACAAATT against DNAJB1,inactive: 0.466
4,GCUCUGUAAUAGUCGACUATT against TOPBP1,inactive: 0.0888
5,AGUACUCCGUCAUGAUCAATT against NDUFA3,inactive: -0.062
6,CGCAAGGACAGAAAACCAATT against ASMT,inactive: -0.322
7,GCACUGAUAAGAAUCUAUUTT against ABHD6,inactive: 0
8,GGAGGUCGAUUUAGUAACATT against AUH,inactive: 0
9,GGAUCCUGAUGCUUCAAAATT against CALR,inactive: -0.795
10,CUAUCCUUGAAAUCCCGAATT against CNTN6,inactive: 0
11,GGAAGUAUCUUCAGGCAGATT against MS4A2,inactive: 0.155
12,ACAAGUUCUUGGAGCCUUATT against ATP1B2,inactive: -0.185
13,GGUUAUCUGGUUAUGGUGATT against SLC28A3,inactive: -0.107
14,GGUCCGGAAUGUGAACUUUTT against SERPINE2,inactive: 0.0144
15,CAAACACUUCUAUUACUUUTT against MOBKL2B,inactive: -0.613
16,GCAAAAUGAUCAAGCCUUUTT against TXN,inactive: -0.195
17,CCCUUAACCUCAUGAGCAATT against ZBTB39,inactive: -0.209
18,CAGAGGUACUCCACGCAGATT against BHLHA15,inactive: -0.199
19,CCUUUUACGUCACCCUUUATT against LIPG,inactive: -0.00236
20,GUUCAAUGGUGGAAGCUUATT against CLEC4F,inactive: 0.347
21,GGAUCGAUCUUCUUGUGGATT against SHKBP1,inactive: 0.345
22,GCCUUGACUCAUUUGGAAATT against PADI2,inactive: -0.199

row,Sequence,median seed-adjusted z-score
1,GGUCUACCGGAUUAUCACATT against BRD2,inactive: -0.242
2,GCUGUGCCCAAUACAAGAATT against ALDOC,inactive: 0.119
3,GGACCUGUUAAGACCUAUATT against AMPD1,inactive: 0.378
4,GGUGGAGCAAGUUGGCAAATT against NOXA1,inactive: -0.441
5,GCUCAGCUCUUCGAAUUCATT against ZNF214,inactive: 0.467
6,CUCAGAUACUAUUAUGUAATT against ELK4,inactive: 0.235
7,GGCUUUACUUUACAUCGAATT against FBXO45,inactive: -0.043
8,ACUCAACAACUGUUCAAUATT against DYNLRB2,inactive: 0.534
9,CCUUACCCUCAAAACAUUATT against B3GALT1,inactive: -0.0555
10,CCAAGAAAAUCACUCUUAATT against IMPDH2,inactive: 0.119
11,UCCUCAAAGUGACACCGGATT against CREB3L1,inactive: 0.708
12,GAUAGAACUUGAGACAGUATT against UBE2G1,inactive: 0.174
13,CUUUGGAGAUGCUAUUAAATT against HBE1,inactive: -0.425
14,GAUAUAUGGUGUUUCAAAATT against UGT2B15,inactive: 0.421
15,GCAUGAAACUGAGUGAAGATT against RASSF5,inactive: 0.11
16,GCACGAGGUUUUCACCUAUTT against SRMS,active: -1.58
17,CAAGCGAAUUAACUAUCUATT against GJB3,inactive: -0.198
18,GAGUCUUACUGUUAACAGUTT against CRTC1,inactive: 0.00363
19,CACCUAUCGCUUACACGUATT against SUOX,inactive: -0.0649
20,GCUUGCAGUUAAUAUCAUUTT against ODC1,active: -1.64
21,GCACGGCACUCAAGAUCAATT against CACNA1S,inactive: 0.842
22,GAGCAGCAGUGCGAAGUGATT against THBD,inactive: -0.16

row,Sequence,median seed-adjusted z-score
1,CCGUGUUCAUUCCUUUUCATT against ZFP41,inactive: 0
2,GCACUGUGGUGAGCUCCAATT against SRP14,inactive: 0.0824
3,GCUUGCUCCUAGACAAUUATT against SPAM1,inactive: 0.518
4,ACAAGACUCUGGACAUUAATT against DHRS4,inactive: 0.263
5,AAGUGUUUGUUGUCCGGGATT against PCDH11Y,inactive: 0.186
6,ACAUGACCUUCAUUCAUGATT against RAPGEF3,inactive: -0.481
7,CCCGUCAUCUCGUUACAAATT against ARHGEF18,inactive: 0.586
8,CCACCUAUAAAGUUCUAAATT against CAPRIN1,active: 1.36
9,GGAAUUUCAUGUUCGGAAUTT against PAFAH2,inactive: 0.0216
10,ACGCGGUUCUGGAGAGUCATT against DHH,inactive: 0
11,CAGUUGAUAUUCAUAAAGATT against ABI2,inactive: -0.0392
12,CCCAAUCUCUCAGACCCACTT against GP1BB,inactive: -0.711
13,CUAGACUUGUCACAAAUGATT against PARS2,inactive: -0.433
14,CCAUAUCCCACAGCAAUUUTT against CACNB4,inactive: -0.223
15,GAUGUAACAUUGACAUUGATT against NOTCH2,inactive: 0.000598
16,CCAUGAUCUCGAAUAUGAATT against CNGA3,inactive: -0.125
17,GGAUACAUCACUAGAUAAATT against MAP2K6,inactive: -0.889
18,GGAUCGAGGAAAUAACAAUTT against DDX42,active: -2.13
19,GCAUGUCUCCAGUACAGAATT against DIO2,inactive: -0.549
20,GCGUUUAUCCGGUUUGACATT against ELAVL1,inactive: 0.316
21,GCAUUCUUGCAGAUCGUAUTT against SEC23A,inactive: 0.131
22,GGAAAGAGAUUCAACAACATT against ZNF434,inactive: 0.545

# An excerpt of these results, with bars between the fields.
row | Sequence | median seed-adjusted z-score
12 | CCCAAUCUCUCAGACCCACTT against GP1BB | inactive: -0.711
13 | CUAGACUUGUCACAAAUGATT against PARS2 | inactive: -0.433

# The list goes on.

row,Sequence,median seed-adjusted z-score
1,AGAAAUACAUGAAGCCCAATT against RNF113A,inactive: -0.128
2,GCAGCGCAGUGUUACUCCATT against ARPC5L,inactive: -0.36
3,CGGAAAAACCUACUGCGAATT against FARSA,inactive: -0.158
4,GAACUGGGACUAACACCUATT against C2,inactive: -0.0549
5,GUGUGGAUCUGUGGACUCATT against CRB2,inactive: 0
6,GAACUUGACCAUUAUAUCATT against PHKA2,inactive: 0.304
7,GGACACGUGUCAUCCGAAATT against IQGAP2,inactive: 0.194
8,GAAAGUUCAAGUACAGUGATT against CYP2E1,inactive: 0.81
9,GGUUAACUUCUUGAGCUAUTT against APOA2,inactive: -0.297
10,GAACCUGACAUUUCGAGAATT against PLCXD2,inactive: -0.0211
11,CUUACGAAGCUUAACCCAATT against TNS3,inactive: 0.18
12,GCCUCAUCAUCACCGCGAATT against GPBAR1,inactive: -0.00293
13,GCCUUCAAGAUGAACCGCATT against SETBP1,inactive: 0.0232
14,GAAUGGUAGAACAAGGUGATT against ADAM10,inactive: 0.14
15,GGAGUUUCCCAUCAAACGATT against PADI4,inactive: 0.417
16,CGAGUUCUCAGACUCCUAUTT against CTPS,inactive: 0.0943
17,GUGUCUAAAUGUACCAGUUTT against TIGD4,inactive: -0.553
18,CGGUCAUACGUAAGAACGATT against P2RY12,inactive: 0.143
19,GGUGAAUUCAAGCUCCUCATT against ELK3,inactive: -0.16
20,AGAGGGCACUGGACCUGAATT against UQCRB,inactive: 0.348
21,GCACAAGUUUGAGCUAGAATT against APOL5,inactive: -0.209
22,AGAUCGUGGUACAGAAGAATT against RBCK1,inactive: 0.479

row,Sequence,median seed-adjusted z-score
1,CGAGCAAGGUCCUUCCAUATT against IGFBP7,inactive: 0.116
2,GGCUUGCUCGUAUUGAUUUTT against SLC40A1,inactive: -0.177
3,AGUCCUACGUACAAUGUCATT against MED25,inactive: -0.589
4,GGUUUGAAGGGUUGACUCATT against STK38L,inactive: 0.079
5,GCUACGAUGGAUCACCCUATT against HSD3B7,inactive: -0.0819
6,CCUAGACUCUCGCACUGAATT against TIMM8B,inactive: -0.853
7,CCCAGUUAGUAUUAUCAUATT against HS3ST3A1,inactive: -0.133
8,GCGGCUCCAUUUACCAGAATT against VDAC1,inactive: 0.133
9,GCAAAGUGCUAAUUGAUAUTT against SUB1,inactive: -0.571
10,CAGCAGUACCGACAGAAGATT against ATAD3B,inactive: -0.624
11,GCACUUUCGCUACAUUUCATT against AQP11,inactive: -0.0455
12,GUGUGGAUCCUAACCGGAATT against CPA2,inactive: 0.0374
13,GGCUACUUCAUGAUACAGATT against GABRA6,inactive: 0.466
14,GCAUCAUCAUCCGAAAUGATT against HECTD2,inactive: 0.405
15,GGGAUGAGCUGAAUGUCAATT against KLHL18,inactive: -0.126
16,GGACAGCAGUGACAUCGGATT against TWIST2,inactive: 0.363
17,GCACUGCUGUUUCCUCUCATT against SBF1,inactive: 0.192
18,GCAAGUUACUUAUCAAGCUTT against AIFM1,inactive: 0.0499
19,GGUACAUCGCGAUAUCAAATT against YSK4,inactive: -0.181

# As a working copy, part of the list above:
row,Sequence,median seed-adjusted z-score
11,GCACUUUCGCUACAUUUCATT against AQP11,inactive: -0.0455
12,GUGUGGAUCCUAACCGGAATT against CPA2,inactive: 0.0374
13,GGCUACUUCAUGAUACAGATT against GABRA6,inactive: 0.466
14,GCAUCAUCAUCCGAAAUGATT against HECTD2,inactive: 0.405
15,GGGAUGAGCUGAAUGUCAATT against KLHL18,inactive: -0.126
16,GGACAGCAGUGACAUCGGATT against TWIST2,inactive: 0.363
